# Results: patent publication US20220401589A1, “PRE-TARGETING IMAGING AGENTS” (Eli Lilly and Company, priority 2019, published 2022)
# This continues a long series; more values of the same kind are listed elsewhere.
# Test: Dynamic PET-CT imaging, tracer uptake in brain, muscle and bone
# Type: in vivo, Male CD-1 mice
# Settings: 90-minute PET scan
# Procedure: PET-CT imaging of [^18F]—N-(4-(1,2,4,5-tetrazin-3-yl)benzyl)-4-fluorobenzamide
# A Siemens Inveon® Multimodality Scanner (Siemens, Germany) is used for micro PET/CT imaging. Male CD-1 (6-week-old, ˜30 g) mice are anesthetized with 3% isoflurane/97% oxygen and placed on the bed of the scanner. The mice are administered [^18F]—N-(4-(1,2,4,5-tetrazin-3-yl)benzyl)-4-fluorobenzamide via a bolus intravenous tail vein injection (˜[…] in a total volume of 200 μL saline). A total of six (four 60 min and two 90 min) dynamic PET scans are conducted, followed by a short high-resolution CT scan for anatomical registration. PET images are generated for each minute of the acquisition time. Uptake of the tracer in the brain, muscle, and bone are determined by visually drawing regions of interest (ROIs) based on the fused PET/CT images and the corresponding activity values are determined using the Inveon® Research Workplace software. All values are represented as % injected dose per gram (% ID/g).
# Bone uptake throughout the scan period remained low, consistent with an absence of defluorination for this tracer. Results of the 90 min scans are similar to the 60 min scan results with peak brain uptake observed at 3.4% ID/g at 2.5 min post injection followed by an immediate wash out to 0.6% ID/g by 59.5 min. Residual uptake is also observed throughout the body of the mouse. Time activity curves are generated for [^18F]—N-(4-(1,2,4,5-tetrazin-3-yl)benzyl)-4-fluorobenzamide in CD-1 male mice (n=4). Data is shown in graphical format in FIGS. 1A and 1B and in tabular format below.
smiles,measurement,setting,value
"O=C(NCc1ccc(-c2nncnn2)cc1)c1ccc([18F])cc1 [[^18F]—N-(4-(1,2,4,5-tetrazin-3-yl)benzyl)-4-fluorobenzamide]",Muscle Mean,time 28.5 min,0.62 % ID/g
same,Bone Mean,time 29.5 min,0.76 % ID/g
same,Brain Mean,time 29.5 min,0.78 % ID/g
same,Muscle Mean,time 29.5 min,0.63 % ID/g
same,Bone Mean,time 30.5 min,0.76 % ID/g
same,Brain Mean,time 30.5 min,0.76 % ID/g
same,Muscle Mean,time 30.5 min,0.64 % ID/g
same,Bone Mean,time 31.5 min,0.60 % ID/g
same,Brain Mean,time 31.5 min,0.75 % ID/g
same,Muscle Mean,time 31.5 min,0.66 % ID/g
same,Bone Mean,time 32.5 min,0.70 % ID/g
same,Brain Mean,time 32.5 min,0.74 % ID/g
same,Muscle Mean,time 32.5 min,0.63 % ID/g
same,Bone Mean,time 33.5 min,0.67 % ID/g
same,Brain Mean,time 33.5 min,0.72 % ID/g
same,Muscle Mean,time 33.5 min,0.62 % ID/g
same,Bone Mean,time 34.5 min,0.74 % ID/g
same,Brain Mean,time 34.5 min,0.70 % ID/g
same,Muscle Mean,time 34.5 min,0.60 % ID/g
same,Bone Mean,time 35.5 min,0.69 % ID/g
same,Brain Mean,time 35.5 min,0.70 % ID/g
same,Muscle Mean,time 35.5 min,0.65 % ID/g
same,Bone Mean,time 36.5 min,0.79 % ID/g
same,Brain Mean,time 36.5 min,0.70 % ID/g
same,Muscle Mean,time 36.5 min,0.65 % ID/g
same,Bone Mean,time 37.5 min,0.62 % ID/g
same,Brain Mean,time 37.5 min,0.68 % ID/g
same,Muscle Mean,time 37.5 min,0.59 % ID/g
same,Bone Mean,time 38.5 min,0.87 % ID/g
same,Brain Mean,time 38.5 min,0.68 % ID/g
same,Muscle Mean,time 38.5 min,0.63 % ID/g
same,Bone Mean,time 39.5 min,0.60 % ID/g
same,Brain Mean,time 39.5 min,0.66 % ID/g
same,Muscle Mean,time 39.5 min,0.61 % ID/g
same,Bone Mean,time 40.5 min,0.82 % ID/g
same,Brain Mean,time 40.5 min,0.66 % ID/g
same,Muscle Mean,time 40.5 min,0.61 % ID/g
same,Bone Mean,time 41.5 min,0.77 % ID/g
same,Brain Mean,time 41.5 min,0.66 % ID/g
same,Muscle Mean,time 41.5 min,0.59 % ID/g
same,Bone Mean,time 42.5 min,0.61 % ID/g
same,Brain Mean,time 42.5 min,0.65 % ID/g
same,Muscle Mean,time 42.5 min,0.63 % ID/g
same,Bone Mean,time 43.5 min,0.65 % ID/g
same,Brain Mean,time 43.5 min,0.64 % ID/g
same,Muscle Mean,time 43.5 min,0.64 % ID/g
same,Bone Mean,time 44.5 min,0.61 % ID/g
same,Brain Mean,time 44.5 min,0.64 % ID/g
same,Muscle Mean,time 44.5 min,0.66 % ID/g
same,Bone Mean,time 45.5 min,0.66 % ID/g
same,Brain Mean,time 45.5 min,0.64 % ID/g
same,Muscle Mean,time 45.5 min,0.63 % ID/g
same,Bone Mean,time 46.5 min,0.67 % ID/g
same,Brain Mean,time 46.5 min,0.64 % ID/g
same,Muscle Mean,time 46.5 min,0.64 % ID/g
same,Bone Mean,time 47.5 min,0.69 % ID/g
same,Brain Mean,time 47.5 min,0.64 % ID/g
same,Muscle Mean,time 47.5 min,0.65 % ID/g
same,Bone Mean,time 48.5 min,0.76 % ID/g
same,Brain Mean,time 48.5 min,0.62 % ID/g
same,Muscle Mean,time 48.5 min,0.61 % ID/g
same,Bone Mean,time 49.5 min,0.91 % ID/g
same,Brain Mean,time 49.5 min,0.62 % ID/g
same,Muscle Mean,time 49.5 min,0.62 % ID/g
same,Bone Mean,time 50.5 min,0.58 % ID/g
same,Brain Mean,time 50.5 min,0.61 % ID/g
same,Muscle Mean,time 50.5 min,0.60 % ID/g
same,Bone Mean,time 51.5 min,0.70 % ID/g
same,Brain Mean,time 51.5 min,0.63 % ID/g
same,Muscle Mean,time 51.5 min,0.59 % ID/g
same,Bone Mean,time 52.5 min,0.51 % ID/g
same,Brain Mean,time 52.5 min,0.63 % ID/g
same,Muscle Mean,time 52.5 min,0.65 % ID/g
same,Bone Mean,time 53.5 min,0.68 % ID/g
same,Brain Mean,time 53.5 min,0.62 % ID/g
same,Muscle Mean,time 53.5 min,0.64 % ID/g
same,Bone Mean,time 54.5 min,0.55 % ID/g
same,Brain Mean,time 54.5 min,0.63 % ID/g
same,Muscle Mean,time 54.5 min,0.69 % ID/g
same,Bone Mean,time 55.5 min,0.68 % ID/g
same,Brain Mean,time 55.5 min,0.61 % ID/g
same,Muscle Mean,time 55.5 min,0.63 % ID/g
same,Bone Mean,time 56.5 min,0.65 % ID/g
same,Brain Mean,time 56.5 min,0.62 % ID/g
same,Muscle Mean,time 56.5 min,0.67 % ID/g
same,Bone Mean,time 57.5 min,0.62 % ID/g
same,Brain Mean,time 57.5 min,0.63 % ID/g
same,Muscle Mean,time 57.5 min,0.63 % ID/g
same,Bone Mean,time 58.5 min,0.67 % ID/g
same,Brain Mean,time 58.5 min,0.63 % ID/g
